Measurements reported in patent publication US20260070984A1.
Results are given in words; binding and its absence hold for the method and conditions named. Some results given as binding are weak or reduced against the parent protein; the word gives no strength.

Protein sequences, listed by entry. Tags and fused reporters are not part of them. Residues count along the entry.
UniProt Q15116, residues 25-167: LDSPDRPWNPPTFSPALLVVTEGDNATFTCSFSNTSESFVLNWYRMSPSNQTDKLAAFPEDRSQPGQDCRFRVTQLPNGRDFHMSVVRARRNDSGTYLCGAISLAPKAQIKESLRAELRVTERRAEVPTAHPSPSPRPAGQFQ

Biological target: PD-1 biotin (UniProt Q15116)
Assay: ELISA-type chemiluminescence assay: PD-1 biotin binding to plate-coated PD-L1 (2 ug/ml) with the antibody titrated; the antibody enhances the signal

- binding: binds
B1: antibody 723C2 in human IgG4Pro backbone without the DC to DY mutation in H-CDR3 (antibody, V domains shown)
VH: EVQLVESGGGLVQPGGSLKLSCAASGFTFSDYYMSWVRQTPEKRLEWVAYISSGGGSSYYPDSVKGRFTISRDNTKNTLYLQMSSLKSEDTAVYYCARLPHYFAMDCWGQGTSVTVSS
VL: EIVLTQSPTTMAASPGEKITITCSASSSISSDYLHWYQQKPGFSPELLIYRTSNLASGVPARFSGSGSGTSYSLTIGSMEAEDVATYYCQQGTSLPRAFGGGTKLEIK
